PubChem BioAssay AID1224830, NIAID – 2016

Assay: 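Genes whose knock-down alters the TNF-alpha reporter response to LPS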 (primary screen)
System: human THP-1 monocytic leukaemia cells, TNF dual-luciferase reporter clone, PMA-differentiated to macrophage-like cells
Knock-down reagent: siRNA pool against human genes, 50 nM
Time to read-out: LPS for 4 h, given about 3 days after siRNA transfection
Treatment: bacterial LPS (TLR4 ligand), 10 ng/ml
Detection: 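Ratio of firefly to renilla light, scaled to the plate median and expressed as a robust z-score per replicate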
Scale: TNF reporter robust z-score: higher = stronger TNF reporter response to LPS
Call rule: 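Each well counts as active if its z-score is over 2.8 or under -1.5; controls are left without a call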
The whole screen tested about 18,000 reagents; this is a part drawn at random. Over the whole deposit, about 2,900 (16%) are marked active. 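Calls are made per well; low scores hint the gene aids the LPS response, high scores that it dampens it.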 Repeated entries: four replicate wells of each siRNA pool.

gene knocked down | TNF reporter robust z-score | Call
ERCC1 (ERCC excision repair 1, endonuclease non-catalytic subunit) | -0.63 | inactive
ERCC1 (ERCC excision repair 1, endonuclease non-catalytic subunit) | 0.06 | inactive
ERCC1 (ERCC excision repair 1, endonuclease non-catalytic subunit) | -0.24 | inactive
ERCC1 (ERCC excision repair 1, endonuclease non-catalytic subunit) | 0.04 | inactive
C1RL (complement C1r subcomponent like) | -0.1 | inactive
C1RL (complement C1r subcomponent like) | 1.28 | inactive
C1RL (complement C1r subcomponent like) | -0.47 | inactive
C1RL (complement C1r subcomponent like) | -0.06 | inactive
NUP88 (nucleoporin 88) | 0 | inactive
NUP88 (nucleoporin 88) | 0.16 | inactive
NUP88 (nucleoporin 88) | 0.66 | inactive
NUP88 (nucleoporin 88) | 0.77 | inactive
ATF1 (activating transcription factor 1) | 2.67 | inactive
ATF1 (activating transcription factor 1) | 2.72 | inactive
ATF1 (activating transcription factor 1) | 2.42 | inactive
ATF1 (activating transcription factor 1) | 3.4 | active
ATP4B (ATPase H+/K+ transporting subunit beta) | 0.57 | inactive
ATP4B (ATPase H+/K+ transporting subunit beta) | 2.57 | inactive
ATP4B (ATPase H+/K+ transporting subunit beta) | 0.76 | inactive
ATP4B (ATPase H+/K+ transporting subunit beta) | 3.08 | active
SOX21 (SRY-box transcription factor 21) | -0.34 | inactive
SOX21 (SRY-box transcription factor 21) | -0.51 | inactive
SOX21 (SRY-box transcription factor 21) | -0.57 | inactive
SOX21 (SRY-box transcription factor 21) | -0.28 | inactive
DCAF10 (DDB1 and CUL4 associated factor 10) | 0.61 | inactive
DCAF10 (DDB1 and CUL4 associated factor 10) | 0.43 | inactive
DCAF10 (DDB1 and CUL4 associated factor 10) | 0.15 | inactive
DCAF10 (DDB1 and CUL4 associated factor 10) | 1.21 | inactive
PLCD4 (phospholipase C delta 4) | 0.38 | inactive
PLCD4 (phospholipase C delta 4) | -0.78 | inactive
PLCD4 (phospholipase C delta 4) | -0.01 | inactive
PLCD4 (phospholipase C delta 4) | -0.29 | inactive
ACSL3 (acyl-CoA synthetase long chain family member 3) | -0.3 | inactive
ACSL3 (acyl-CoA synthetase long chain family member 3) | 0.08 | inactive
ACSL3 (acyl-CoA synthetase long chain family member 3) | -0.84 | inactive
ACSL3 (acyl-CoA synthetase long chain family member 3) | 3.14 | active
AP3B2 (adaptor related protein complex 3 subunit beta 2) | -0.87 | inactive
AP3B2 (adaptor related protein complex 3 subunit beta 2) | -0.22 | inactive
AP3B2 (adaptor related protein complex 3 subunit beta 2) | -1.15 | inactive
AP3B2 (adaptor related protein complex 3 subunit beta 2) | -0.37 | inactive
KASH5 (KASH domain containing 5) | -0.36 | inactive
KASH5 (KASH domain containing 5) | -0.78 | inactive
KASH5 (KASH domain containing 5) | -0.7 | inactive
KASH5 (KASH domain containing 5) | -0.32 | inactive
HEATR6 (HEAT repeat containing 6) | -0.35 | inactive
HEATR6 (HEAT repeat containing 6) | -1.29 | inactive
HEATR6 (HEAT repeat containing 6) | -0.75 | inactive
HEATR6 (HEAT repeat containing 6) | -0.7 | inactive
NEK4 (NIMA related kinase 4) | -0.15 | inactive
NEK4 (NIMA related kinase 4) | 0.96 | inactive
NEK4 (NIMA related kinase 4) | 0.36 | inactive
NEK4 (NIMA related kinase 4) | 0.15 | inactive
DNAH7 (dynein axonemal heavy chain 7) | 0.13 | inactive
DNAH7 (dynein axonemal heavy chain 7) | 0.01 | inactive
DNAH7 (dynein axonemal heavy chain 7) | 0.81 | inactive
DNAH7 (dynein axonemal heavy chain 7) | -0.29 | inactive
COMT (catechol-O-methyltransferase) | 3.27 | active
COMT (catechol-O-methyltransferase) | 3.17 | active
COMT (catechol-O-methyltransferase) | 1.56 | inactive
COMT (catechol-O-methyltransferase) | 0.15 | inactive
MKLN1 (muskelin 1) | -0.89 | inactive
MKLN1 (muskelin 1) | -0.75 | inactive
MKLN1 (muskelin 1) | -0.92 | inactive
KRT13 (keratin 13) | 0.06 | inactive
KRT13 (keratin 13) | 0.58 | inactive
KRT13 (keratin 13) | 0.93 | inactive
ACSF2 (acyl-CoA synthetase family member 2) | -0.07 | inactive
ACSF2 (acyl-CoA synthetase family member 2) | 0.56 | inactive
ACSF2 (acyl-CoA synthetase family member 2) | -0.13 | inactive
TBC1D14 (TBC1 domain family member 14) | -0.09 | inactive
TBC1D14 (TBC1 domain family member 14) | -0.31 | inactive
TBC1D14 (TBC1 domain family member 14) | 0.1 | inactive
TBC1D14 (TBC1 domain family member 14) | -0.62 | inactive
KRABD4 (KRAB domain containing 4) | 0.3 | inactive
KRABD4 (KRAB domain containing 4) | -0.4 | inactive
KRABD4 (KRAB domain containing 4) | 0.13 | inactive
KRABD4 (KRAB domain containing 4) | -0.08 | inactive
NEU2 (neuraminidase 2) | -1.36 | inactive
NEU2 (neuraminidase 2) | -0.73 | inactive
NEU2 (neuraminidase 2) | -0.66 | inactive
NEU2 (neuraminidase 2) | -0.5 | inactive
DIP2C (DIP2 acetate--CoA ligase C (putative)) | 0.72 | inactive
DIP2C (DIP2 acetate--CoA ligase C (putative)) | 0.09 | inactive
DIP2C (DIP2 acetate--CoA ligase C (putative)) | 0.8 | inactive
DIP2C (DIP2 acetate--CoA ligase C (putative)) | 1.04 | inactive
PRH1 (proline rich protein HaeIII subfamily 1) | -0.61 | inactive
PRH1 (proline rich protein HaeIII subfamily 1) | -0.76 | inactive
PRH1 (proline rich protein HaeIII subfamily 1) | -1.08 | inactive
PRH1 (proline rich protein HaeIII subfamily 1) | -0.83 | inactive
FAN1 (FANCD2 and FANCI associated nuclease 1) | -0.88 | inactive
FAN1 (FANCD2 and FANCI associated nuclease 1) | -0.59 | inactive
FAN1 (FANCD2 and FANCI associated nuclease 1) | -0.57 | inactive
FAN1 (FANCD2 and FANCI associated nuclease 1) | -0.32 | inactive
TMX1 (thioredoxin related transmembrane protein 1) | -0.17 | inactive
TMX1 (thioredoxin related transmembrane protein 1) | 0.48 | inactive
TMX1 (thioredoxin related transmembrane protein 1) | -0.28 | inactive
TMX1 (thioredoxin related transmembrane protein 1) | 1.09 | inactive
KCMF1 (potassium channel modulatory factor 1) | 5.83 | active
KCMF1 (potassium channel modulatory factor 1) | 3.58 | active
KCMF1 (potassium channel modulatory factor 1) | 2.92 | active
KCMF1 (potassium channel modulatory factor 1) | 1.31 | inactive
SH2B3 (SH2B adaptor protein 3) | 0.42 | inactive
SH2B3 (SH2B adaptor protein 3) | 0.04 | inactive
SH2B3 (SH2B adaptor protein 3) | -0.51 | inactive
SH2B3 (SH2B adaptor protein 3) | 0.07 | inactive
SEC23IP (SEC23 interacting protein) | 0.8 | inactive
SEC23IP (SEC23 interacting protein) | 0.23 | inactive
SEC23IP (SEC23 interacting protein) | 0.1 | inactive
SEC23IP (SEC23 interacting protein) | 0.21 | inactive
HSPG2 (heparan sulfate proteoglycan 2) | -0.62 | inactive
HSPG2 (heparan sulfate proteoglycan 2) | 0.25 | inactive
HSPG2 (heparan sulfate proteoglycan 2) | -0.25 | inactive
HSPG2 (heparan sulfate proteoglycan 2) | -0.33 | inactive

19 of these entries in another layout.
ATF1 (activating transcription factor 1): TNF reporter robust z-score = 2.42; Call = inactive
ATF1 (activating transcription factor 1): TNF reporter robust z-score = 3.4; Call = active
ATP4B (ATPase H+/K+ transporting subunit beta): TNF reporter robust z-score = 0.57; Call = inactive
ATP4B (ATPase H+/K+ transporting subunit beta): TNF reporter robust z-score = 2.57; Call = inactive
ATP4B (ATPase H+/K+ transporting subunit beta): TNF reporter robust z-score = 0.76; Call = inactive
ATP4B (ATPase H+/K+ transporting subunit beta): TNF reporter robust z-score = 3.08; Call = active
SOX21 (SRY-box transcription factor 21): TNF reporter robust z-score = -0.34; Call = inactive
SOX21 (SRY-box transcription factor 21): TNF reporter robust z-score = -0.51; Call = inactive
SOX21 (SRY-box transcription factor 21): TNF reporter robust z-score = -0.57; Call = inactive
SOX21 (SRY-box transcription factor 21): TNF reporter robust z-score = -0.28; Call = inactive
DCAF10 (DDB1 and CUL4 associated factor 10): TNF reporter robust z-score = 0.61; Call = inactive
DCAF10 (DDB1 and CUL4 associated factor 10): TNF reporter robust z-score = 0.43; Call = inactive
DCAF10 (DDB1 and CUL4 associated factor 10): TNF reporter robust z-score = 0.15; Call = inactive
DCAF10 (DDB1 and CUL4 associated factor 10): TNF reporter robust z-score = 1.21; Call = inactive
PLCD4 (phospholipase C delta 4): TNF reporter robust z-score = 0.38; Call = inactive
PLCD4 (phospholipase C delta 4): TNF reporter robust z-score = -0.78; Call = inactive
PLCD4 (phospholipase C delta 4): TNF reporter robust z-score = -0.01; Call = inactive
PLCD4 (phospholipase C delta 4): TNF reporter robust z-score = -0.29; Call = inactive
ACSL3 (acyl-CoA synthetase long chain family member 3): TNF reporter robust z-score = -0.3; Call = inactive
